Publication PMC10152145
These are yes or no findings as the source states them, for the method shown. In cells and extracts the contact can be indirect. These calls come from enrichment with a bait or labelling near it, and not all partners need be listed. No binding means not detected with the bait.

target: DCP1‐TurboID‐6xHis‐3xFLAG (Arabidopsis thaliana); test: affinity purification with mass spectrometry + proximity labelling; APEAL as a whole (AP and PDL steps in tandem, step not told for the statement); DCP1‐TurboID‐HF bait in Arabidopsis rosette leaves, non-stress or heat stress

Row | binding | Binder
1 | no binding | Ras‐related protein Rab‐A5c (protein, UniProt P28187 1-214) MSDDDERGEEYLFKIVIIGDSAVGKSNLLTRYARNEFNPNSKATIGVEFQTQSMLIDGKEVKAQIWDTAGQERFRAVTSAYYRGAVGALVVYDITRSSTFENVGRWLDELNTHSDTTVAKMLIGNKCDLESIRAVSVEEGKSLAESEGLFFMETSALDSTNVKTAFEMVIREIYSNISRKQLNSDSYKEELTVNRVSLVKNENEGTKTFSCCSR
2 | no binding | RNA‐BINDING PROTEIN 47B (protein, UniProt Q0WW84 1-435) MQTTNGSDSTLATSGATPPNQQTPPPPQQWQQQQQQQQQWMAAMQYPPAAAMMMMQQQQMLMYPHQYVPYNQGPYQQHHPQLHQYGSYQQHQHQQHKAIDRGSGDDVKTLWVGDLLHWMDETYLHSCFSHTGEVSSVKVIRNKLTSQSEGYGFVEFLSRAAAEEVLQNYSGSVMPNSDQPFRINWASFSTGEKRAVENGPDLSVFVGDLSPDVTDVLLHETFSDRYPSVKSAKVVIDSNTGRSKGYGFVRFGDENERSRALTEMNGAYCSNRQMRVGIATPKRAIANQQQHSSQAVILAGGHGSNGSMGYGSQSDGESTNATIFVGGIDPDVIDEDLRQPFSQFGEVVSVKIPVGKGCGFVQFADRKSAEDAIESLNGTVIGKNTVRLSWGRSPNKQWRGDSGQQWNGGYSRGHGYNNGGGYANHHDSNNYHGEN
3 | no binding | PINFORMED7 (protein, UniProt Q940Y5 1-619) MITWHDLYTVLTAVIPLYVAMILAYGSVRWWKIFSPDQCSGINRFVAIFAVPLLSFHFISSNNPYAMNLRFIAADTLQKLIMLTLLIIWANFTRSGSLEWSITIFSLSTLPNTLVMGIPLLIAMYGEYSGSLMVQIVVLQCIIWYTLLLFLFEYRGAKILIMEQFPETGASIVSFKVESDVVSLDGHDFLETDAQIGDDGKLHVTVRKSNASRRSFYGGGGTNMTPRPSNLTGAEIYSLNTTPRGSNFNHSDFYSMMGFPGGRLSNFGPADMYSVQSSRGPTPRPSNFEESCAMASSPRFGYYPGGAPGSYPAPNPEFSTGNKTGSKAPKENHHHVGKSNSNDAKELHMFVWGSNGSPVSDRAGLQVDNGANEQVGKSDQGGAKEIRMLISDHTQNGENKAGPMNGDYGGEEESERVKEVPNGLHKLRCNSTAELNPKEAIETGETVPVKHMPPASVMTRLILIMVWRKLIRNPNTYSSLIGLIWALVAFRWDVAMPKIIQQSISILSDAGLGMAMFSLGLFMALQPKLIACGNSTATFAMAVRFFTGPAVMAVAAMAIGLRGDLLRVAIVQAALPQGIVPFVFAKEYNVHPAILSTGVIFGMLIALPITLVYYILLGL
